The values that follow come from paper PMC10598014.

Chains of the proteins cited; added tags and fusions are not shown.
UniProt O60293: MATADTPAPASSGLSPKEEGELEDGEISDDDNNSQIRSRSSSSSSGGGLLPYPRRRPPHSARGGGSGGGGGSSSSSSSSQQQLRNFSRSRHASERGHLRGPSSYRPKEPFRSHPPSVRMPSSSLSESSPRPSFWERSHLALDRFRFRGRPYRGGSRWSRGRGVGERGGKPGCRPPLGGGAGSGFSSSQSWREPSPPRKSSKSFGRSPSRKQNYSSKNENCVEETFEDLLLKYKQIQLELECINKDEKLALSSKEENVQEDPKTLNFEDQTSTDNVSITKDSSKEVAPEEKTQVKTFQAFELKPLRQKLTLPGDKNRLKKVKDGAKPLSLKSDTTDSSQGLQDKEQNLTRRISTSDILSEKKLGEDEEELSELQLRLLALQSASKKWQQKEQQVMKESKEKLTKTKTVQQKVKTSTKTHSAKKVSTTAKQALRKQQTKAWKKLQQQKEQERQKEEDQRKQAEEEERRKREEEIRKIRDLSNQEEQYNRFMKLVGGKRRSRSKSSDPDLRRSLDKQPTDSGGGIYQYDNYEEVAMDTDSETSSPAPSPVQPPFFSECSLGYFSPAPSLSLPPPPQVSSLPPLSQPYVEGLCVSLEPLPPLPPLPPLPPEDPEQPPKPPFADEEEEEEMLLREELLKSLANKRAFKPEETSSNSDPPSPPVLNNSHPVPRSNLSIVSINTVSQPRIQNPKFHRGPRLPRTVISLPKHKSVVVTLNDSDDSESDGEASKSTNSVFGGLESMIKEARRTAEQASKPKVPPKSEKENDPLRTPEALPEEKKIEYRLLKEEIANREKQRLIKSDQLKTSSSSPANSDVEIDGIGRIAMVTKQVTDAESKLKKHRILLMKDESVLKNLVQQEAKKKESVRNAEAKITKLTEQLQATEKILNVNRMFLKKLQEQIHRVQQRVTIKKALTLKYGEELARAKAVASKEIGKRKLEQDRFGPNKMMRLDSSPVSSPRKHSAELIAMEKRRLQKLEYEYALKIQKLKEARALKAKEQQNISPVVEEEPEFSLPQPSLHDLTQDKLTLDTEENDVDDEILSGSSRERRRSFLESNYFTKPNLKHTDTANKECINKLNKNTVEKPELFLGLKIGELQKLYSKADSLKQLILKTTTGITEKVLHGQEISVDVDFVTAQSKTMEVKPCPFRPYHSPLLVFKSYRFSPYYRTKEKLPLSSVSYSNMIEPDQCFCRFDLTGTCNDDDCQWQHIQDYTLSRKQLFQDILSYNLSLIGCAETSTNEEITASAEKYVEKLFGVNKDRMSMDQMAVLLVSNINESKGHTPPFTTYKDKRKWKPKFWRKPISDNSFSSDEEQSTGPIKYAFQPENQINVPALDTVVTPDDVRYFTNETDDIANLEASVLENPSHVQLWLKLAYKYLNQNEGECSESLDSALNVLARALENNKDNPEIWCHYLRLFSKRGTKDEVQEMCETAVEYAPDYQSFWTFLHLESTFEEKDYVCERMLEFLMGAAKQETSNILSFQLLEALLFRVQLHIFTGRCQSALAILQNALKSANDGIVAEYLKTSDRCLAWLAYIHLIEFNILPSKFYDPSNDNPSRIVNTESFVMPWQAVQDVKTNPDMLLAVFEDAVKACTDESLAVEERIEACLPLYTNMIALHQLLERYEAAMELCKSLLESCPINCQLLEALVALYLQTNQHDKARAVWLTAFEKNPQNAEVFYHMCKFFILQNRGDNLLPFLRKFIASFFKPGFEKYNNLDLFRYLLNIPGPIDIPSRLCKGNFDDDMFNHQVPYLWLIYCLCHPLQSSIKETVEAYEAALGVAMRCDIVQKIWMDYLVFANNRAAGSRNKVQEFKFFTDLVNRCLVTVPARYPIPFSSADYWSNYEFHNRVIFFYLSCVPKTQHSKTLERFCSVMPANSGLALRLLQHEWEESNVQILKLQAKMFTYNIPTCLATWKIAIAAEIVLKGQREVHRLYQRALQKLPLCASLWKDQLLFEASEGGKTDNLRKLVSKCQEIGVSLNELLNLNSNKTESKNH
UniProt Q9BWT3: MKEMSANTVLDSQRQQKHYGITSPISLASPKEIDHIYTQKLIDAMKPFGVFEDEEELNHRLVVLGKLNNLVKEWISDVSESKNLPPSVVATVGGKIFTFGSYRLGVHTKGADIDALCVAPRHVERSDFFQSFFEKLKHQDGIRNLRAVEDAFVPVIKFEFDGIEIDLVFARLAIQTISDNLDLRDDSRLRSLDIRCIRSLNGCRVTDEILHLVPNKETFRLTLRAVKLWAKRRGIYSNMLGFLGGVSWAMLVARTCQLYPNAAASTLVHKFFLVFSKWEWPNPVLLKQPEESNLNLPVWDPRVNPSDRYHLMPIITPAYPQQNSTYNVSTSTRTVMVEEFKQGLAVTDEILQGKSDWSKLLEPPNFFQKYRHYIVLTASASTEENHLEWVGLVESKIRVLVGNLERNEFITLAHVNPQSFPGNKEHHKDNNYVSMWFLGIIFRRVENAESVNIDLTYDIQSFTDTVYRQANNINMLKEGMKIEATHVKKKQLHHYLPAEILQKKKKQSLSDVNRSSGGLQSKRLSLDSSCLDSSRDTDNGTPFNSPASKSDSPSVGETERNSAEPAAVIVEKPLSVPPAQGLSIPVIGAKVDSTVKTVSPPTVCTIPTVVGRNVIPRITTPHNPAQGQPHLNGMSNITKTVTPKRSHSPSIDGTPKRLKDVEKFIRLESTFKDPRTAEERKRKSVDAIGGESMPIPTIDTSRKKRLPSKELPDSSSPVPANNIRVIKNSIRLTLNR
UniProt Q16630: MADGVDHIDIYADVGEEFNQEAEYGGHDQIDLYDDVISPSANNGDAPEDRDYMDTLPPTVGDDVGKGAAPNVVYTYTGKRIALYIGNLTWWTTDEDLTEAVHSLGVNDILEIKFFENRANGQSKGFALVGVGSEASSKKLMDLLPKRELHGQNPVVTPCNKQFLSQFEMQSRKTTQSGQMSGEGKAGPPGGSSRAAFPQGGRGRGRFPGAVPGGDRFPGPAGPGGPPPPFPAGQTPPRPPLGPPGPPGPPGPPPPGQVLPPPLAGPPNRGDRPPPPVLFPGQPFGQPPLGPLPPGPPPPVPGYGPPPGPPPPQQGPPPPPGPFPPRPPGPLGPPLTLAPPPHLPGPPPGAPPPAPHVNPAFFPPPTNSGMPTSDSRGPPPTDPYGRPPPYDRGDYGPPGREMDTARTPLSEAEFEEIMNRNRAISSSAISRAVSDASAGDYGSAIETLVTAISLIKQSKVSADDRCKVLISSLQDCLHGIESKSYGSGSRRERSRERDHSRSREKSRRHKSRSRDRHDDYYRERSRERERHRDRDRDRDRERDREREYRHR

The target of assay [1] is ZFC3H1 (human (endogenous in HeLa)) (UniProt O60293). As to the kind of experiment: co-IP; as the co-IP from HeLa nuclear extracts, immunoprecipitates incubated with RNAse A/T cocktail (1.2 μL/mL of immunoprecipitation buffer) for 30 min at RT, followed by 5 washes.
For assay [2] the target is unchanged. The assay can be described thus: co-IP; endogenous proteins; HeLa nuclear extracts treated with micrococcal nuclease; 50 mM tris pH 7.6, 150 mM NaCl, 1% NP-40; 2 μg antibody overnight at 4 °C, Protein A Dynabeads; IgG control; immunoblot. (In general: A western blot detects proteins with antibodies after separation by electrophoresis.)
In assay [3] the target is polyA polymerase gamma (PAPγ) (human (endogenous in HEK-293T and HeLa)) (UniProt Q9BWT3). The description is as above.
Assay [4] shares this target. The assay can be described thus: co-IP; as the co-IP from HeLa nuclear extracts, immunoprecipitates incubated with RNAse A/T cocktail (1.2 μL/mL of immunoprecipitation buffer) for 30 min at RT, followed by 5 washes.

Results are given in words; binding and its absence hold for the method and conditions named. In cells and extracts the contact can be indirect. Some binding calls cover weakened binding; strength is not graded here.

Consider “polyA polymerase gamma (PAPγ) (from UniProt Q9BWT3 1-736) (enzyme)”, for which the binding result in assay [1] and in assay [2] was “binds” throughout.

For CPSF6 (from UniProt Q16630 1-551), the binding result in assay [2] was “binds”.

B1: YTHDC2 (protein, UniProt Q9H6S0 1-1430)
chain: MSRPSSVSPRQPAPGGGGGGGPSPCGPGGGGRAKGLKDIRIDEEVKIAVNIALERFRYGDQREMEFPSSLTSTERAFIHRLSQSLGLVSKSKGKGANRYLTVKKKDGSETAHAMMTCNLTHNTKHAVRSLIQRFPVTNKERTELLPKTERGNVFAVEAENREMSKTSGRLNNGIPQIPVKRGESEFDSFRQSLPVFEKQEEIVKIIKENKVVLIVGETGSGKTTQIPQFLLDDCFKNGIPCRIFCTQPRRLAAIAVAERVAAERRERIGQTIGYQIRLESRVSPKTLLTFCTNGVLLRTLMAGDSTLSTVTHVIVDEVHERDRFSDFLLTKLRDLLQKHPTLKLILSSAALDVNLFIRYFGSCPVIYIQGRPFEVKEMFLEDILRTTGYTNKEMLKYKKEKQQEEKQQTTLTEWYSAQENSFKPESQRQRTVLNVTDEYDLLDDGGDAVFSQLTEKDVNCLEPWLIKEMDACLSDIWLHKDIDAFAQVFHLILTENVSVDYRHSETSATALMVAAGRGFASQVEQLISMGANVHSKASNGWMALDWAKHFGQTEIVDLLESYSATLEFGNLDESSLVQTNGSDLSAEDRELLKAYHHSFDDEKVDLDLIMHLLYNICHSCDAGAVLIFLPGYDEIVGLRDRILFDDKRFADSTHRYQVFMLHSNMQTSDQKKVLKNPPAGVRKIILSTNIAETSITVNDVVFVIDSGKVKEKSFDALNFVTMLKMVWISKASAIQRKGRAGRCRPGICFRLFSRLRFQNMLEFQTPELLRMPLQELCLHTKLLAPVNCPIADFLMKAPEPPPALIVRNAVQMLKTIDAMDTWEDLTELGYHLADLPVEPHLGKMVLCAVVLKCLDPILTIACTLAYRDPFVLPTQASQKRAAMLCRKRFTAGAFSDHMALLRAFQAWQKARSDGWERAFCEKNFLSQATMEIIIGMRTQLLGQLRASGFVRARGGGDIRDVNTNSENWAVVKAALVAGMYPNLVHVDRENLVLTGPKEKKVRFHPASVLSQPQYKKIPPANGQAAAIKALPTDWLIYDEMTRAHRIANIRCCSAVTPVTILVFCGPARLASNALQEPSSFRVDGIPNDSSDSEMEDKTTANLAALKLDEWLHFTLEPEAASLLLQLRQKWHSLFLRRMRAPSKPWSQVDEATIRAIIAVLSTEEQSAGLQQPSGIGQRPRPMSSEELPLASSWRSNNSRKSSADTEFSDECTTAERVLMKSPSPALHPPQKYKDRGILHPKRGTEDRSDQSSLKSTDSSSYPSPCASPSPPSSGKGSKSPSPRPNMPVRYFIMKSSNLRNLEISQQKGIWSTTPSNERKLNRAFWESSIVYLVFSVQGSGHFQGFSRMSSEIGREKSQDWGSAGLGGVFKVEWIRKESLPFQFAHHLLNPWNDNKKVQISRDGQELEPLVGEQLLQLWERLPLGEKNTTD
Consider B1, for which, in assay [3], the binding entry was “binds”.

B2: RBM27 (protein, UniProt Q9P2N5 1-1060)
chain: MLIEDVDALKSWLAKLLEPICDADPSALANYVVALVKKDKPEKELKAFCADQLDVFLQKETSGFVDKLFESLYTKNYLPLLEPVKPEPKPLVQEKEEIKEEVFQEPAEEERDGRKKKYPSPQKTRSESSERRTREKKREDGKWRDYDRYYERNELYREKYDWRRGRSKSRSKSRGLSRSRSRSRGRSKDRDPNRNVEHRERSKFKSERNDLESSYVPVSAPPPNSSEQYSSGAQSIPSTVTVIAPAHHSENTTESWSNYYNNHSSSNSFGRNLPPKRRCRDYDERGFCVLGDLCQFDHGNDPLVVDEVALPSMIPFPPPPPGLPPPPPPGMLMPPMPGPGPGPGPGPGPGPGPGPGPGHSMRLPVPQGHGQPPPSVVLPIPRPPITQSSLINSRDQPGTSAVPNLASVGTRLPPPLPQNLLYTVSERQPMYSREHGAAASERLQLGTPPPLLAARLVPPRNLMGSSIGYHTSVSSPTPLVPDTYEPDGYNPEAPSITSSGRSQYRQFFSRTQTQRPNLIGLTSGDMDVNPRAANIVIQTEPPVPVSINSNITRVVLEPDSRKRAMSGLEGPLTKKPWLGKQGNNNQNKPGFLRKNQYTNTKLEVKKIPQELNNITKLNEHFSKFGTIVNIQVAFKGDPEAALIQYLTNEEARKAISSTEAVLNNRFIRVLWHRENNEQPTLQSSAQLLLQQQQTLSHLSQQHHHLPQHLHQQQVLVAQSAPSTVHGGIQKMMSKPQTSGAYVLNKVPVKHRLGHAGGNQSDASHLLNQSGGAGEDCQIFSTPGHPKMIYSSSNLKTPSKLCSGSKSHDVQEVLKKKQEAMKLQQDMRKKRQEVLEKQIECQKMLISKLEKNKNMKPEERANIMKTLKELGEKISQLKDELKTSSAVSTPSKVKTKTEAQKELLDTELDLHKRLSSGEDTTELRKKLSQLQVEAARLGILPVGRGKTMSSQGRGRGRGRGGRGRGSLNHMVVDHRPKALTVGGFIEEEKEDLLQHFSTANQGPKFKDRRLQISWHKPKVPSISTETEEEEVKEEETETSDLFLPDDDDEDEDEYESRSWRR
Take B2: the binding entry in assay [4], in assay [1], in assay [3] and in assay [2] was “binds” each time.

B3: ZC3H14 (protein, UniProt Q6PJT7 1-736)
chain: MEIGTEISRKIRSAIKGKLQELGAYVDEELPDYIMVMVANKKSQDQMTEDLSLFLGNNTIRFTVWLHGVLDKLRSVTTEPSSLKSSDTNIFDSNVPSNKSNFSRGDERRHEAAVPPLAIPSARPEKRDSRVSTSSQESKTTNVRQTYDDGAATRLMSTVKPLREPAPSEDVIDIKPEPDDLIDEDLNFVQENPLSQKKPTVTLTYGSSRPSIEIYRPPASRNADSGVHLNRLQFQQQQNSIHAAKQLDMQSSWVYETGRLCEPEVLNSLEETYSPFFRNNSEKMSMEDENFRKRKLPVVSSVVKVKKFNHDGEEEEEDDDYGSRTGSISSSVSVPAKPERRPSLPPSKQANKNLILKAISEAQESVTKTTNYSTVPQKQTLPVAPRTRTSQEELLAEVVQGQSRTPRISPPIKEEETKGDSVEKNQGTQQRQLLSRLQIDPVMAETLQMSQDYYDMESMVHADTRSFILKKPKLSEEVVVAPNQESGMKTADSLRVLSGHLMQTRDLVQPDKPASPKFIVTLDGVPSPPGYMSDQEEDMCFEGMKPVNQTAASNKGLRGLLHPQQLHLLSRQLEDPNGSFSNAEMSELSVAQKPEKLLERCKYWPACKNGDECAYHHPISPCKAFPNCKFAEKCLFVHPNCKYDAKCTKPDCPFTHVSRRIPVLSPKPAVAPPAPPSSSQLCRYFPACKKMECPFYHPKHCRFNTQCTRPDCTFYHPTINVPPRHALKWIRPQTSE
Turning to B3, the binding result in assay [2] is listed as “binds”.
